Results are given in words; binding and its absence hold for the method and conditions named. Binding seen in cells or lysates may run through a third protein. Some entries that bind do so weakly or less than the wild type.
Biological target: Flag-tagged NEDD4 (UniProt P46935)
Experiment: co-IP; 293T cells transfected with Flag-Nedd4 and GFP-Pfn1; NP-40 lysis buffer; anti-Flag on protein G-Sepharose, 2 h at 4 °C, compared to control mouse IgG; western blot

Sequences of proteins named here, by UniProt entry; tags and fusion partners are left off.
UniProt P46935: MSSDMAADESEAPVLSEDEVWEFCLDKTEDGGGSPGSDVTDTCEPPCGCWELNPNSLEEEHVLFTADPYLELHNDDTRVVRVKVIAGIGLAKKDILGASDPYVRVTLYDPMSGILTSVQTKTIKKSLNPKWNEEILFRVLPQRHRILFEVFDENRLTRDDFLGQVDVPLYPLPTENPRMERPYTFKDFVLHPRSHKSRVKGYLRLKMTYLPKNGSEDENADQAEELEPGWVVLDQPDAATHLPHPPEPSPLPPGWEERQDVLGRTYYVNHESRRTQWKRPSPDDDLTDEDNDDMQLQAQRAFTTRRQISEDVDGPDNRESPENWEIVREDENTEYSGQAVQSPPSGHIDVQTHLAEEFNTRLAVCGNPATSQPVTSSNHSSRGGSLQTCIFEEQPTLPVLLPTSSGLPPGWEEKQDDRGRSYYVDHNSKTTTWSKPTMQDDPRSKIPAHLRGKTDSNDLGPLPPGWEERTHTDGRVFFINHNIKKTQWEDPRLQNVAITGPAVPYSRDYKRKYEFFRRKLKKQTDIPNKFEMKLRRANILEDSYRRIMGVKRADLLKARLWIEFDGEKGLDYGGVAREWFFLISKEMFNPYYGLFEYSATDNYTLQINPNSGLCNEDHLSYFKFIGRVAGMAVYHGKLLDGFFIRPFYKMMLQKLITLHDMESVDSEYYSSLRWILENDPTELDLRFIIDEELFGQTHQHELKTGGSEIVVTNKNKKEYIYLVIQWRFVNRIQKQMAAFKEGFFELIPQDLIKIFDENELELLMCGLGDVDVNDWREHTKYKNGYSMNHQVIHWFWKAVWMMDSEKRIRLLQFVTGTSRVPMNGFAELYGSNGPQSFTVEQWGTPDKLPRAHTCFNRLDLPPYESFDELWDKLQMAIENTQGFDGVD
UniProt P62962: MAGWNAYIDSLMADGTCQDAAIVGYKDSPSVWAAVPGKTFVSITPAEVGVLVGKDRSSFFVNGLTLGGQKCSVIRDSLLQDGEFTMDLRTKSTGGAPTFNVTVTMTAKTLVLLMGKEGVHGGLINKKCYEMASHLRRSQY

- binding: binds
Substance: GFP-PFN1 (from UniProt P62962 1-140)

— paper PMC9018756
